Drawing on publication PMC7390679 (Bioorganic chemistry, 2020), this text covers EC50 for one compound.

Structures are written as SMILES.

One test has as its system EV-A71 Tainan/4643/98. Briefly: CPE antiviral assay, EV-A71 Tainan/4643/98 in RD cells. Type of test: cell-based. Conditions: Enterovirus A, EVA71, RD, read-out: EC50 against EV-A71 Tainan.
In another test the test system is CVB3. The test is described as follows: CPE antiviral assay, CVB3 in Vero C1008 cells. The format is cell-based. Conditions: Enterovirus B, CVB3, Vero C1008, read-out: EC50 against CVB3.

For the compound `CNCCC(Oc1ccc(C(F)(F)F)cc1)c1ccccc1` (centres unmarked) [fluoxetine], the EC50 is more than 10 µM with EV-A71 Tainan/4643/98 and 2.1 µM in the test on CVB3.

By EC50 is commonly meant the concentration that produces a half-maximal response.
